{"source": "paper PMC6532589", "test_system": "thrombin (cited studies)", "assay": "binding assay", "details": "free aptamer, exosite II; PBS (1X: 137 mM NaCl, 2.7 mM KCl, 10 mM Na2HPO4, 1.8 mM KH2PO4, pH 7.4) with 100 uM BSA, 30 min; 100 pM Supra-TBA15/29, thrombin 0-1 nM; temperature not stated; native protein; folded or branched DNA; letters put together from the description", "note": "Construct, isoform or probe ends are uncertain for at least one entry."}
{"sequence": "AGTCCGTGGTAGGGCAGGTTGGGGTGACT [TBA29]", "values": [{"measurement": "Kd", "result": 0.5, "unit": "nM"}]}
